Here are results for 26 molecules from PubChem BioAssay AID330 (DTP/NCI, 2004).

The test system of this experiment is P388 leukemia ip, CD2F1 mice, survival T/C. Nature of the experiment: NCI In Vivo Anticancer Drug Screen. Data for tumor model P388 Leukemia (intraperitoneal) in CD2F1 (CDF1) mice. As to conditions: T/C endpoint: median survival time, higher T/C = longer survival.
Where [1] appears, read: dose: 200.0 mg/kg/injection, schedule: Q01DX009 (ip), vehicle: saline.
[2] abbreviates: dose: 200.0 mg/kg/injection, schedule: Q04DX002 (ip), vehicle: Klucel (hydroxypropylcellulose) (HPC).
The mark [3] stands for this setting: dose: 400.0 mg/kg/injection, schedule: Q04DX002 (ip), vehicle: Klucel (hydroxypropylcellulose) (HPC).
The mark [4] stands for this setting: dose: 50.0 mg/kg/injection, schedule: Q01DX005 (ip), vehicle: saline with Tween-80.
The mark [5] stands for this setting: dose: 100.0 mg/kg/injection, schedule: Q01DX005 (ip), vehicle: saline with Tween-80.
[6] abbreviates: dose: 200.0 mg/kg/injection, schedule: Q01DX005 (ip), vehicle: saline with Tween-80.
Setting [7] is: dose: 100.0 mg/kg/injection, schedule: Q01DX005 (ip), vehicle: Klucel (hydroxypropylcellulose) (HPC).
The mark [8] stands for this setting: dose: 200.0 mg/kg/injection, schedule: Q01DX005 (ip), vehicle: Klucel (hydroxypropylcellulose) (HPC).
Setting [9] is: dose: 50.0 mg/kg/injection, schedule: Q04DX002 (ip), vehicle: Klucel (hydroxypropylcellulose) (HPC).
[10] abbreviates: dose: 100.0 mg/kg/injection, schedule: Q04DX002 (ip), vehicle: Klucel (hydroxypropylcellulose) (HPC).

Each structure is given as a SMILES string. The list shows only some results of the screen, not a fair sample: it is rich in T/C values a quarter to a half above the control, in often repeated tests (any T/C) and in doses without a T/C. Further doses and runs are listed elsewhere. T/C gives the treated animals as a percentage of the vehicle group. Some entries give survivors of the animals treated and no T/C: the source files T/C as zero there, which appears to mark a toxic dose or a test without result, not a measured value. Some survivor counts are full or nearly so, which does not show that the dose was tolerated: the source hardly ever lists a survival T/C far under the control, and the zero likely stands for such cases as well. Counts of survivors are from the toxicity check (mostly the fifth day) where no day follows; animals may have died later. Schedules are NCI's codes, taken here to give the interval after Q, in days (D) or hours (H), and the number of doses after X. Some entries hold several experiments; the results are listed from low to high. For survival time, this PubChem deposit counts one and a half times the control or more as active, and values a quarter to a half above the control carry no call in these data; other NCI protocols may use other cut-offs. Some T/C values are followed by the survivors on the day toxicity was checked, most often the fifth; where none is given, no animal had died by that day.

Consider `NC(=S)Nc1ccccc1`, for which the survivor count is 3 of 6 (dose: 20.0 mg/kg/injection, schedule: Q04DX003 (ip), vehicle: saline with Tween-80); 0 of 6 (dose: 40.0 mg/kg/injection, schedule: Q04DX003 (ip), vehicle: saline with Tween-80); 0 of 6 (dose: 80.0 mg/kg/injection, schedule: Q04DX003 (ip), vehicle: saline with Tween-80).
For the molecule `O=NN(CCCl)C(=O)Nc1ccc(I)cc1`, the T/C reads like this: (dose: 1.32 mg/kg/injection, schedule: Q01DX009 (ip), vehicle: saline with Tween-80) 145 % of control; (dose: 2.0 mg/kg/injection, schedule: Q01DX009 (ip), vehicle: saline with Tween-80) 136 % of control; (dose: 3.13 mg/kg/injection, schedule: Q04DX003 (ip), vehicle: saline with Tween-80) 136 % of control; (dose: 12.5 mg/kg/injection, schedule: Q04DX003 (ip), vehicle: saline sonified) 141 % of control. Moreover, the survivor count (dose: 100.0 mg/kg/injection, schedule: Q01DX009 (ip), vehicle: saline with Tween-80) was 6 of 6.
Regarding `C[C@H](CCC1=NC(C)(C)CO1)C1CCC2[C@@H]3C(O)C[C@@H]4CC(O)CC[C@]4(C)C3CC[C@@]21C` (stereo not given in full), for the setting “dose: 240.0 mg/kg/injection, schedule: Q01DX005 (ip), vehicle: saline with Tween-80”, the survivor count is listed as 6 of 6.
Consider `Cn1/c2cc/c1=C(\c1ccccc1)c1ccc([n-]1)/C(c1ccccc1)=c1/cc/c([nH]1)=C(\c1ccccc1)c1ccc([n-]1)/C=2c1ccccc1.O.O=S(=O)(O)C(F)(F)F.[Cu+2]`, for which the survivor count is 6 of 6 (dose: 100.0 mg/kg/injection, schedule: Q01DX009 (ip), vehicle: other) and 6 of 6 (dose: 200.0 mg/kg/injection, schedule: Q01DX009 (ip), vehicle: other).
With `CN(C)Cc1ccc2ccccc2c1O`, under setting [1], the survivor count was 5 of 6.
With `CCCCNC1c2ccccc2CCC1O` (stereo not given), the survivor count by setting is: under setting [2], 1 of 6; (dose: 400.0 mg/kg/injection, schedule: Q01DX001 (ip), vehicle: Klucel (hydroxypropylcellulose) (HPC)) 0 of 6; under setting [3], 0 of 6.
For the molecule `CN(C)CCOc1ccc2c(c1)C/C(=C/c1ncc([N+](=O)[O-])n1C)C2=O`, the T/C (dose: 30.0 mg/kg/injection, schedule: Q01DX009 (ip), vehicle: saline with Tween-80) is 129 % of control; the T/C (dose: 45.0 mg/kg/injection, schedule: Q01DX009 (ip), vehicle: saline with Tween-80) was 126 % of control [5 of 6 alive]; the T/C (dose: 60.0 mg/kg/injection, schedule: Q01DX009 (ip), vehicle: saline with Tween-80) was 137 % of control; the T/C (dose: 90.0 mg/kg/injection, schedule: Q01DX009 (ip), vehicle: saline with Tween-80) was 125 and 134 % of control.
In the case of `O=C1Nc2ccccc2C(c2ccccc2)=NC1C1(O)CCCCC1` (stereo not given), the survivor count reads like this: under setting [4], 6 of 6; under setting [5], 6 of 6; under setting [6], 6 of 6.
Take `c1ccc2[nH]c(N=Nc3cccc4ccccc34)cc2c1`: the survivor count reads like this: (dose: 50.0 mg/kg/injection, schedule: Q01DX009 (ip), vehicle: other) 6 of 6; (dose: 400.0 mg/kg/injection, schedule: Q01DX009 (ip), vehicle: other) 4 of 6 and 5 of 6. Further, the T/C (dose: 200.0 mg/kg/injection, schedule: Q01DX009 (ip), vehicle: saline with Tween-80) was 125 % of control.
As to `CNC(=O)OCc1c(COC(=O)NC)c2n(c1C)CCS2(=O)=O`, the survivor count under setting [6] is 6 of 6 and the survivor count (dose: 400.0 mg/kg/injection, schedule: Q01DX005 (ip), vehicle: saline with Tween-80) was 6 of 6.
Take `CCc1nc(N)nc(N)c1-c1ccc2nn(-c3ccccc3)[n+]([O-])c2c1`: the T/C is, setting by setting: (dose: 50.0 mg/kg/injection, schedule: Q01DX005 (ip), vehicle: Klucel (hydroxypropylcellulose) (HPC)) 129 % of control [5 of 6 alive]; under setting [7], 127 and 131 % of control [5 of 6 alive]; under setting [8], 142 % of control. For the same molecule, the survivor count (dose: 400.0 mg/kg/injection, schedule: Q01DX005 (ip), vehicle: Klucel (hydroxypropylcellulose) (HPC)) is listed as 0 of 6.
For the molecule `CCc1nn(CCCN2CCN(c3cccc(Cl)c3)CC2)c(=O)n1CC`, the survivor count under setting [1] was 0 of 6.
With `COC1=CC(=O)C(C(c2ccc(OC)cc2)N2CCOCC2)=CC1=O` (stereo not given), the survivor count reads like this: under setting [5], 0 of 6; under setting [6], 0 of 6.
With `CC(=O)OC1CSS(=O)CC1OC(C)=O` (stereo not given), the survivor count (dose: 400.0 mg/kg/injection, schedule: Q04DX002 (ip), vehicle: saline) is given as 4 of 6.
As for `ClCc1nnc(-c2ccccc2)o1`, the survivor count (dose: 200.0 mg/kg/injection, schedule: Q01DX009 (ip), vehicle: Klucel (hydroxypropylcellulose) (HPC)) is reported as 5 of 6.
Take `CN(C)CCSc1cc(O)c2c(c1O)C(=O)c1ccccc1C2=O`: under “dose: 400.0 mg/kg/injection, schedule: Q01DX009 (ip), vehicle: water”, the survivor count is recorded as 4 of 6.
For `NNC(=O)CCSC(=O)Nc1ccccc1`, the survivor count under setting [6] is reported as 0 of 5.
Turning to `Cc1ccc2ccccc2c1C(=N)c1cc2ccccc2c2ccccc12`, the survivor count under setting [8] was 5 of 5.
For the molecule `c1cnc2ccc3ncccc3c2c1`, the survivor count is reported as 2 of 5 under setting [7] and 0 of 5 under setting [8].
With `c1ccc(P2(c3ccccc3)(c3ccccc3)OCC3CC32)cc1` (stereo not given), the survivor count is, setting by setting: (dose: 100.0 mg/kg/injection, schedule: Q01DX009 (ip), vehicle: olive oil, sesame oil, peanut oil) 6 of 6; (dose: 200.0 mg/kg/injection, schedule: Q01DX009 (ip), vehicle: olive oil, sesame oil, peanut oil) 6 of 6.
For `OC(CNC1CCCCC1)CO/N=C1\CCSc2c(Cl)cccc21` (stereo not given), the survivor count runs as follows: under setting [9], 2 of 6; under setting [10], 0 of 6; under setting [2], 0 of 6; under setting [3], 0 of 6.
In the case of `CC(=O)Nc1ccc(OCCOC(=O)Nc2c(Cl)cccc2Cl)cc1`, the survivor count (dose: 100.0 mg/kg/injection, schedule: Q01DX009 (ip), vehicle: Klucel (hydroxypropylcellulose) (HPC)) was 6 of 6.
On to `N#CN(Cc1ccccc1)C(c1ccccc1)(c1ccccc1)c1ccccc1.[I][Sn]([c]1ccccc1)([c]1ccccc1)[c]1ccccc1`, for which the survivor count by setting is: (dose: 12.5 mg/kg/injection, schedule: Q01DX005 (ip), vehicle: saline with Tween-80) 3 of 6; under setting [4], 0 of 6; under setting [5], 0 of 6; under setting [6], 0 of 6.
With `CCC(=O)Nc1ccc(N=NN(C)C)cc1`, the survivor count by setting is: under setting [9], 0 of 6; under setting [10], 0 of 6 and 1 of 6; under setting [2], 0 of 6; under setting [3], 0 of 6.
As to `CN(C)CCC(=O)c1ccc(Cl)cc1Cl`, under setting [1], the survivor count is 3 of 6.
Regarding `O=c1[nH]c(=O)n(C2CC(O)C(CO)O2)cc1C(F)(F)F` (stereo not given), the T/C was 131 % of control (dose: 31.25 mg/kg/injection, schedule: Q01DX009 (ip), vehicle: Klucel (hydroxypropylcellulose) (HPC), evaluated on day 20); 140 % of control (dose: 31.25 mg/kg/injection, schedule: Q01DX009 (ip), vehicle: Klucel (hydroxypropylcellulose) (HPC), evaluated on day 30); 130 and 133 % of control (dose: 62.5 mg/kg/injection, schedule: Q01DX009 (ip), vehicle: Klucel (hydroxypropylcellulose) (HPC)); 146 % of control (dose: 125.0 mg/kg/injection, schedule: Q01DX009 (ip), vehicle: Klucel (hydroxypropylcellulose) (HPC)); 128 % of control (dose: 250.0 mg/kg/injection, schedule: Q01DX009 (ip), vehicle: Klucel (hydroxypropylcellulose) (HPC), evaluated on day 20); 142 % of control (dose: 250.0 mg/kg/injection, schedule: Q01DX009 (ip), vehicle: Klucel (hydroxypropylcellulose) (HPC), evaluated on day 30). Moreover, the T/C (dose: 500.0 mg/kg/injection, schedule: Q01DX009 (ip), vehicle: Klucel (hydroxypropylcellulose) (HPC)) was 132 % of control. The survivor count (dose: 1000.0 mg/kg/injection, schedule: Q01DX005 (ip), vehicle: Klucel (hydroxypropylcellulose) (HPC)) is on record as 6 of 6.
